± gives the half width of the 95% confidence interval. The two proteases of the assay disagree for many of these sequences.
Experiments:
[1] = folding stability dG unfold from chymotrypsin proteolysis; higher = more stable
Experimental: (§1)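 Folding stability of de novo designed mini-proteins (<80 aa, no Cys; designed by TrROS, TrMRF, ProteinMPNN and the joint model) was measured by cDNA display proteolysis with trypsin and chymotrypsin. Each protease was used at 11 concentrations in a threefold dilution series plus a no-protease condition. K50 was inferred by Bayesian fitting of sequencing counts, and dG unfold was derived against a sequence-predicted unfolded-state K50 (Tsuboyama et al. method). Sequences shown include variable-length N-terminal GS-type padding (SAGGSAGG...) inside a display construct carrying a PA tag. Rows were kept only if the AF2 dimer inter-PAE was >15, to exclude likely homo-oligomers.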

[2] = folding stability dG unfold (combined trypsin and chymotrypsin); higher = more stable
Experimental: as §1

Sequence: SAGGSAGGSAGGVVSRLPEDAILVTTTTLQTVDFELPDGTLRTEKRTTTTVTILPPELSSAGGSAGGSAGGS [r10_383_JUSTAS]
- folding stability dG unfold [1]: 1.13 ± 0.038 kcal/mol
- folding stability dG unfold [2]: 0.628 ± 0.12 kcal/mol

Sequence: SAGGSAGGSAGGSRRLLTEKDPATGTTTTTELTFENGVPTTTSTTTTVTPLPPLTPNLGLSAGGSAGGSAGG [r7_276_JUSTAS]
- folding stability dG unfold [1]: 1.08 ± 0.031 kcal/mol
- folding stability dG unfold [2]: 0.685 ± 0.19 kcal/mol

Sequence: SAGGSAGGSAGGPPEILDVLRAADVPVVRVEVFEVPLPGTTAPALLVLAGNPDGRYLVLGSAGGSAGGSAGG [r7_337_TrMRF]
- folding stability dG unfold [1]: 1.04 ± 0.18 kcal/mol
- folding stability dG unfold [2]: 0.424 ± 0.22 kcal/mol

Sequence: SAGGSAGGSAGGMIVPPDLSVTVTFPDGSVRTLTLNSDEDLVETLEKPVPPDVDVVAVAASAGGSAGGSAGG [r7_223_JUSTAS]
- folding stability dG unfold [1]: 1.02 ± 0.12 kcal/mol
- folding stability dG unfold [2]: 0.183 ± 0.17 kcal/mol

Sequence: SAGGSSNKYLVTVTVSTPGKEITLNFEVESEEEAEELVREAIKEKYPENLDEITIEITITPTSDPESAGGSA [r2_111_JUSTAS]
- folding stability dG unfold [1]: 2.94 ± 0.17 kcal/mol
- folding stability dG unfold [2]: 3.44 ± 0.24 kcal/mol

Sequence: SAGGSAMILDIPDDETLTIELPGDATARVEVRSGPDGGRLVRVVVEARAGAGPVVAPAEILLPPEGSAGGSA [r15_280_TrMRF]
- folding stability dG unfold [1]: 1.12 ± 0.036 kcal/mol
- folding stability dG unfold [2]: 0.701 ± 0.08 kcal/mol

Sequence: SMIPPGAELELEFEIEGEGDEPLRIRLRLRFDPGPDGKARVRLELELEGPDGPVLRLPFEFELDIPPDALSA [r9_86_TrMRF]
- folding stability dG unfold [1]: 3.85 ± 0.042 kcal/mol
- folding stability dG unfold [2]: 3.5 ± 0.059 kcal/mol

Sequence: SAGGSAGGSAGMVVETEVLETTPPGRTVRTRTTTREKTPDNAPVTTESESVTEVPSPPLESAGGSAGGSAGG [r11_689_JUSTAS]
- folding stability dG unfold [1]: 0.615 ± 0.026 kcal/mol
- folding stability dG unfold [2]: 0.273 ± 0.081 kcal/mol

Sequence: SAGGSAGGSAGGSENGVQPPVRPRVTVRFPDDGKWWEFTTLEELEELIKDGNFEIDEITSAGGSAGGSAGGS [r10_520_TrROS]
- folding stability dG unfold [1]: 1.17 ± 0.029 kcal/mol
- folding stability dG unfold [2]: 0.703 ± 0.04 kcal/mol

Sequence: SAGGSAATTEYEETVVDPNNPEPVKVKRTVTETVPPNPVVRTEETVTYPDGTVTRPTSVSTTPTAVSAGGSA [r15_828_JUSTAS]
- folding stability dG unfold [1]: 1.24 ± 0.084 kcal/mol
- folding stability dG unfold [2]: 0.724 ± 0.19 kcal/mol

Sequence: SMSEVVEESEFNGEKVITIKVTLPDGTPVTVTITLSPEGEGTVTTVPPSSSTSTTTTVPVSQVDEVLEALSA [r9_91_JUSTAS]
- folding stability dG unfold [1]: 1.4 ± 0.031 kcal/mol
- folding stability dG unfold [2]: 1.61 ± 0.074 kcal/mol

Sequence: SAGGSAGGSAMNVTTETRTDPVTGNTTTTTTYTDTGEVVTTTTTTPPETTTTTTTTTSLTKSAGGSAGGSAG [r3_126_JUSTAS]
- folding stability dG unfold [1]: 0.982 ± 0.07 kcal/mol
- folding stability dG unfold [2]: 0.524 ± 0.2 kcal/mol

Sequence: SAGGSAGGSAKTININTNGPAAPALIEAAKEKGDSVNVTVTPVYGDKAYPITGTFPVLPDESAGGSAGGSAG [r3_149_TrMRF]
- folding stability dG unfold [1]: 1.61 ± 0.11 kcal/mol
- folding stability dG unfold [2]: 1.13 ± 0.14 kcal/mol

Sequence: SAGGSAGGSAGGAADGPEKVVTVPVRFTFTLPDGDEVEVRGVATFYEDGPITFELKEVYPSAGGSAGGSAGG [r7_694_TrMRF]
- folding stability dG unfold [1]: 3.6 ± 0.046 kcal/mol
- folding stability dG unfold [2]: 3.15 ± 0.16 kcal/mol

Sequence: SAGGSAGGSAGGAMTLEELIAAVPPTRPDVTVEAEFPEKPVKVTITRPPDGTVEVEVKKVSAGGSAGGSAGG [r7_984_JUSTAS]
- folding stability dG unfold [1]: 1.75 ± 0.1 kcal/mol
- folding stability dG unfold [2]: 1.25 ± 0.17 kcal/mol

Sequence: SAGGPGFQRYPYTLELPDGRKITVEYWRMGDNPYVQIDIRHDGEPLGTIHVPVPSPDQIEDAAKDIISAGGS [r16_55_TrROS]
- folding stability dG unfold [1]: 1.78 ± 0.054 kcal/mol
- folding stability dG unfold [2]: 1.58 ± 0.072 kcal/mol

Sequence: SAGSVTVEVFGPGRLLATYTLDDTTTTVAVPPEPVRVRIRSPGDDAEATADADPATGVVTVTVPADLGLSAG [r5_469_JUSTAS]
- folding stability dG unfold [1]: 0.679 ± 0.05 kcal/mol
- folding stability dG unfold [2]: 0.165 ± 0.064 kcal/mol

Sequence: SAGGEIKIEVEKTEDTIKVKIVNKKTGKVEEREFKPGEKLEELPEGAEPKKIEIVNKNGEKIEIELPSAGGS [r8_487_TrROS_Hall]
- folding stability dG unfold [1]: 1.11 ± 0.065 kcal/mol
- folding stability dG unfold [2]: 0.561 ± 0.094 kcal/mol

Sequence: SAGGVPVPPEVEYPISPEAVELAEKLAPELGAKNFKVTVVSVEPGYITVEITLPDTGKTVTVTIPLGSAGGS [r16_281_JUSTAS]
- folding stability dG unfold [1]: 1.987 ± 0.015 kcal/mol
- folding stability dG unfold [2]: 1.82 ± 0.053 kcal/mol

Sequence: SAGGSAGGSAGGSGPEELARELARLLPPGARVEVRVRRLPETDRLVVEVRVYSPEELERSAGGSAGGSAGGS [r4_350_TrROS_Hall]
- folding stability dG unfold [1]: 1.63 ± 0.041 kcal/mol
- folding stability dG unfold [2]: 1.12 ± 0.044 kcal/mol
